Reference: the supplement of paper PMC10849652
Some of the results follow.

Chains of the proteins cited; added tags and fusions are not shown. Lines headed by an entry give the natural chain unless they say otherwise; changes in a name come on top.
UniProt P49815: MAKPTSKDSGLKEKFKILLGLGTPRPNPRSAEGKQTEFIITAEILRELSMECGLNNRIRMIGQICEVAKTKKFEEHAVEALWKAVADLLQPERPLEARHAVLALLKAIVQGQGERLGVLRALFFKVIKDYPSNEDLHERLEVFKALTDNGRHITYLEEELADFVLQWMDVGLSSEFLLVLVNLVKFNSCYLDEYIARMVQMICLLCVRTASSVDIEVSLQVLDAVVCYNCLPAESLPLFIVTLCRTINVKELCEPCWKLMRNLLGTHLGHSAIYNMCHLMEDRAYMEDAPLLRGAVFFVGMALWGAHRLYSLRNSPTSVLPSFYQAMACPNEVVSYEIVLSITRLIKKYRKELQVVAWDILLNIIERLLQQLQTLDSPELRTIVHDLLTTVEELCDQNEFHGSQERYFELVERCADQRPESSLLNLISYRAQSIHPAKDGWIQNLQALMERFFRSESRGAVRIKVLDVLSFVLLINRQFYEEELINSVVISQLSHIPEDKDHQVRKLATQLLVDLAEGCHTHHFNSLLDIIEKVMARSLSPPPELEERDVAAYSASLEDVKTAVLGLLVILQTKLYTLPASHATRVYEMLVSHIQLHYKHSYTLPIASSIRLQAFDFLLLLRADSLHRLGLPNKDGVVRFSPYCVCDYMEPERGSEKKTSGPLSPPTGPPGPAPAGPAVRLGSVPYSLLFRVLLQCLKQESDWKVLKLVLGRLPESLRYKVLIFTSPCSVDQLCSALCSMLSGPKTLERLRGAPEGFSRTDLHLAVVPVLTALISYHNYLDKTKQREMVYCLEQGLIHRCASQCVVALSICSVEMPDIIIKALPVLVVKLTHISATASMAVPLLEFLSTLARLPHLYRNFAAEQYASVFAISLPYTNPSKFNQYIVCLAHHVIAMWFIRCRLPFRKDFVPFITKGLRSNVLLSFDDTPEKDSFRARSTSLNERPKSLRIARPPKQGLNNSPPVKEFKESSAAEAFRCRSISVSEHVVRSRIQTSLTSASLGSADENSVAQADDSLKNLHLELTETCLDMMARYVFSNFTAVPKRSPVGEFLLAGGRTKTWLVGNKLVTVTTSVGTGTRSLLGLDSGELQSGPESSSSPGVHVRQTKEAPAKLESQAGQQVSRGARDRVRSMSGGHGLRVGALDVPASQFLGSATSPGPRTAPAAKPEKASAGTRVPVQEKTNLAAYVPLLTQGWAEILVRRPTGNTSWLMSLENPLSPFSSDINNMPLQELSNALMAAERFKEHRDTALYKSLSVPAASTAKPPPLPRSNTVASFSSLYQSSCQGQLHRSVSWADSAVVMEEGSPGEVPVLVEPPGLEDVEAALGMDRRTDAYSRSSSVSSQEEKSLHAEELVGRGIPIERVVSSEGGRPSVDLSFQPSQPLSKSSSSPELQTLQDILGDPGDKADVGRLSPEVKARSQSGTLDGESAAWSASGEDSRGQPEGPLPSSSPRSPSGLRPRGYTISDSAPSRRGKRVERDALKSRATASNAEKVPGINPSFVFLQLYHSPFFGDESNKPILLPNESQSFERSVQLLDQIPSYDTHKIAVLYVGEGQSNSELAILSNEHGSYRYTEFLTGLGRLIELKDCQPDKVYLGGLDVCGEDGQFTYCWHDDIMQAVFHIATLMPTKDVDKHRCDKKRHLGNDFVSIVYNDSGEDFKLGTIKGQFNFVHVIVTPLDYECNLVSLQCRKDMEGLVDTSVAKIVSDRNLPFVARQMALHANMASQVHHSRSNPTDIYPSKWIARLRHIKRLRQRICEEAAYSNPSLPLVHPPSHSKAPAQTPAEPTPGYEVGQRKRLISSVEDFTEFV
UniProt O75865, whole entry, looked up: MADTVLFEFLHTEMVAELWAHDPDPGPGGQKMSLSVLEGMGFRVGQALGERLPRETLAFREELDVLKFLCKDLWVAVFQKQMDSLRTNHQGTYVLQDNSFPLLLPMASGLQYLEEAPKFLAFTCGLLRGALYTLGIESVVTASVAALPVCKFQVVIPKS
UniProt Q7Z4G4: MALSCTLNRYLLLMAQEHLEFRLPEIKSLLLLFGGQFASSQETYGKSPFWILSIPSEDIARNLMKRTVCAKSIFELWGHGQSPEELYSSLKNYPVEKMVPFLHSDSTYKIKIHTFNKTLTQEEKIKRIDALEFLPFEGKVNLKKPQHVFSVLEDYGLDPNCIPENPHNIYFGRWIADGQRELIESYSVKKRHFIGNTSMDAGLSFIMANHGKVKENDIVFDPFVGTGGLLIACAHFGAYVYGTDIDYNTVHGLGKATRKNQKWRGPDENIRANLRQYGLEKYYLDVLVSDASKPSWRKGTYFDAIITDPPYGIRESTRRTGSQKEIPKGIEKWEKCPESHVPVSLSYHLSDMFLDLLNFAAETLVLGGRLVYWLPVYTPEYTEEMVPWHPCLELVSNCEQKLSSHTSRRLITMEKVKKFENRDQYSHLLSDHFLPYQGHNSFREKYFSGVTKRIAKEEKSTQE
UniProt O95801: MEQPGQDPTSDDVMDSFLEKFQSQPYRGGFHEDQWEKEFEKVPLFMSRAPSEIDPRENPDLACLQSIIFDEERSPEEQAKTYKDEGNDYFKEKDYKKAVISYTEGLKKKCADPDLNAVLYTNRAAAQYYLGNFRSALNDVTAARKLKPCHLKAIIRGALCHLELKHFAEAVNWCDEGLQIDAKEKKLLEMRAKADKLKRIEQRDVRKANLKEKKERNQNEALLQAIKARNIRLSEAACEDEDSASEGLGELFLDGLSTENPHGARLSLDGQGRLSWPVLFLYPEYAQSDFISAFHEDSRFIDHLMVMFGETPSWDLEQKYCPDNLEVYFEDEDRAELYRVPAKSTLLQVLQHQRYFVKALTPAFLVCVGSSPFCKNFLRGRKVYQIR
UniProt Q96FX7: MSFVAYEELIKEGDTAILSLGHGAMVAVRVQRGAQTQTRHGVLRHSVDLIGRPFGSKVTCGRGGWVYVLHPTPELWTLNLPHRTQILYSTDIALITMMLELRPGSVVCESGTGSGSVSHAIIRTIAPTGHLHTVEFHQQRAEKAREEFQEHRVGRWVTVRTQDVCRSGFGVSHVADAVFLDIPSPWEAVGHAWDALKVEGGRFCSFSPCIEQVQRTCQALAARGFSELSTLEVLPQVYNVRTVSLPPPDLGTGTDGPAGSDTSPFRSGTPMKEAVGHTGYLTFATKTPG
UniProt Q9UL33, whole entry, looked up: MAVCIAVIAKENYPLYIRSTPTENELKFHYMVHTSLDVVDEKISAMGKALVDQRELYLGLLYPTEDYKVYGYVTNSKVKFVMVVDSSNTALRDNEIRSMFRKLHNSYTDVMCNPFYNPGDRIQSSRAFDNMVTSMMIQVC
UniProt P30536, whole entry, looked up: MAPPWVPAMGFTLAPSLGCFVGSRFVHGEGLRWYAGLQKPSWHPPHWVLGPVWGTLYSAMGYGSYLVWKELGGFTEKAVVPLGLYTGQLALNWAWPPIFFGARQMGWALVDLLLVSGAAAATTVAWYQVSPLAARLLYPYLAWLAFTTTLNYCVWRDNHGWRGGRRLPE
UniProt Q8N0Z6: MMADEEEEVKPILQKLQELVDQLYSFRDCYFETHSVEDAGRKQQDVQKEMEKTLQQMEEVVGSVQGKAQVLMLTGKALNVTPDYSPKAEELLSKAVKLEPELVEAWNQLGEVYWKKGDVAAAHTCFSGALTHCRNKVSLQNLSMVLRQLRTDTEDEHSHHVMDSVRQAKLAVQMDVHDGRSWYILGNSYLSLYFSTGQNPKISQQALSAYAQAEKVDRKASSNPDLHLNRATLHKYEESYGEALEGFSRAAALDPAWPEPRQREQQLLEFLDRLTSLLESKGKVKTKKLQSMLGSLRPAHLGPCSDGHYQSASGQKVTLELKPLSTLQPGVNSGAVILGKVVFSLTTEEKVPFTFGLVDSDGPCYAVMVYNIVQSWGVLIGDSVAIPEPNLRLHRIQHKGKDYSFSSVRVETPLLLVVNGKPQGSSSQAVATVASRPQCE
UniProt Q7Z392: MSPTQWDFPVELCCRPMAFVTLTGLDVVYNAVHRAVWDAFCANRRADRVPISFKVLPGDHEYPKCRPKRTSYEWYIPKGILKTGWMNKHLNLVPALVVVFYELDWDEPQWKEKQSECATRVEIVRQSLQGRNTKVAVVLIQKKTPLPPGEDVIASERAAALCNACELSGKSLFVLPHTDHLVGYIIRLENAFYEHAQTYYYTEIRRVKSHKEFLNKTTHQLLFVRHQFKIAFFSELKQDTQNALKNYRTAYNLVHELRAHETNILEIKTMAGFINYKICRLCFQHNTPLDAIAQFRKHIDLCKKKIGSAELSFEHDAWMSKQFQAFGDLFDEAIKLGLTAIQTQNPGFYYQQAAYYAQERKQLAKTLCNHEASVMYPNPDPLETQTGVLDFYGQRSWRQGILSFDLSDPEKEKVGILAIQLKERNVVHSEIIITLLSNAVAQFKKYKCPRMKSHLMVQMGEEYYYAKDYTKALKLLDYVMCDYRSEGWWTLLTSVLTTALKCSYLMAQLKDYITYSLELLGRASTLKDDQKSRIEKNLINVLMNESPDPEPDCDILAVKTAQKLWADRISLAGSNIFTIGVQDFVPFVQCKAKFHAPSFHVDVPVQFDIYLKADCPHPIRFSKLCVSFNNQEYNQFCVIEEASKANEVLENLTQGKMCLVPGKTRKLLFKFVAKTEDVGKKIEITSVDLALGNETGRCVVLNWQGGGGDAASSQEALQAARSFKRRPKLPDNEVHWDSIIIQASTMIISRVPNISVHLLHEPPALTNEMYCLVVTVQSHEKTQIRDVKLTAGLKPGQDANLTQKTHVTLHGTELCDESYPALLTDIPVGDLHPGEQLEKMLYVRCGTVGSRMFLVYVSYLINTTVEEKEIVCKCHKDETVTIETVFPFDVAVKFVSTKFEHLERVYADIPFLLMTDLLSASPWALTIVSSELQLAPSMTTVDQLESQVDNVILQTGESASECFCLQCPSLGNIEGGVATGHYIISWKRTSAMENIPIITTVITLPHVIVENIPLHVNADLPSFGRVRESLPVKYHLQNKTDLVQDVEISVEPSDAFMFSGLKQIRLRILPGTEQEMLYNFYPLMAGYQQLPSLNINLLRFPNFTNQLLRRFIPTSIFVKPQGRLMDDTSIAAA
UniProt Q14258, whole entry, looked up: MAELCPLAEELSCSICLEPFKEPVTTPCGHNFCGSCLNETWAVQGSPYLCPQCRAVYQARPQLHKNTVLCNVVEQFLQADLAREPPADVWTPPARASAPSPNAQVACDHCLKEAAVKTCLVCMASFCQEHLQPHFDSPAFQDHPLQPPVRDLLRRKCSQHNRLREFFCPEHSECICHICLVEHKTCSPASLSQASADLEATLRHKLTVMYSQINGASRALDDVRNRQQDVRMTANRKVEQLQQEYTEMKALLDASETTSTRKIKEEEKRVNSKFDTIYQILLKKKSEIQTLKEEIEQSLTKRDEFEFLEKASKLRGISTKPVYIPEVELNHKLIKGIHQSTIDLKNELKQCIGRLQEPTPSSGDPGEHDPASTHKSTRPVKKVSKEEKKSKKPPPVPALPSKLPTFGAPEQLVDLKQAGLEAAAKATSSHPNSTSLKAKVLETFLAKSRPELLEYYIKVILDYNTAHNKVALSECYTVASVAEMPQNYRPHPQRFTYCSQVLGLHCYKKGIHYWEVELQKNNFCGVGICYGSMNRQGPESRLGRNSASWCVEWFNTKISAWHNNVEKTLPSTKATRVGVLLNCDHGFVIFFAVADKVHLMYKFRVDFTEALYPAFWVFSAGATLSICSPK
UniProt Q15645: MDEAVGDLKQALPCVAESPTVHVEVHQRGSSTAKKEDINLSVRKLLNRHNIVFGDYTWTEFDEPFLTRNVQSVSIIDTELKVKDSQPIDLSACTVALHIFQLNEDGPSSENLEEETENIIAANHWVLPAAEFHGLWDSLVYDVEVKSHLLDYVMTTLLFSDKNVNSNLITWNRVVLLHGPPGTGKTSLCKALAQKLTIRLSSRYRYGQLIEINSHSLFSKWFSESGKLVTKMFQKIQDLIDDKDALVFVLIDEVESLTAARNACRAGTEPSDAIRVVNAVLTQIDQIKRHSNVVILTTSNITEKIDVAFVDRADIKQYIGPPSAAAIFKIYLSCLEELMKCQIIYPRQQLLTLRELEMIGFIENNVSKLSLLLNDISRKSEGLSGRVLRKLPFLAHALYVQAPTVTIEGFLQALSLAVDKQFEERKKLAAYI
UniProt Q969E8: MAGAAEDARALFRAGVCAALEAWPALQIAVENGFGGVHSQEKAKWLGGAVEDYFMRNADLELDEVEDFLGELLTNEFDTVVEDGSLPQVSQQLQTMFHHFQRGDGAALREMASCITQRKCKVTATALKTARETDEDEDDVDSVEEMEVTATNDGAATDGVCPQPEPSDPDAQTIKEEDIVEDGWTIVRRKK
UniProt Q8N5M4: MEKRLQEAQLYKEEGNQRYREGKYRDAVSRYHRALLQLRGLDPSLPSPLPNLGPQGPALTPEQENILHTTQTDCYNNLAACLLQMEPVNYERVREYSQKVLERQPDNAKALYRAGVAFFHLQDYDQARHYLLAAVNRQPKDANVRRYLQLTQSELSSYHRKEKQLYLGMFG

Compound: CC1=C(C=C(C=C1)NC(=O)C2=CC(=CC=C2)C(C)(C)C#N)NC3=CC4=C(C=C3)N=CN(C4=O)C
Experiment: log2 fold change, soluble protein after heating vs DMSO (PISA); higher = thermal stabilisation; K562 lysate, 10 uM; active = over 0.2 and 3.5 SD of the protein, either way, in both replicates (recomputed)
Outline: (§1)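 Soluble protein was defined as the supernatant remaining after 21,000xg for 90 min, following pooling of heated aliquots and adjustment to 0.5% NP-40 at 4°C. Before that, crude K562 extract at 1 mg/mL protein in PBS pH 7.4 with 1 mM MgCl2 was treated with 10 μM compound for 30 min and heated for 3 min across 48°C-58°C. Quantification used TMTpro 16plex LC-MS/MS with channel sums equalised, and values are log-two fold changes in thermal stability relative to solvent controls from duplicates.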

Row | Target | log2 fold change
1 | TRRAP (UniProt Q9Y4A5) | inactive: -0.018
2 | TSEN54 (UniProt Q7Z6J9) | inactive: 0.018
3 | TRAPPC2 isoform 3 (UniProt P0DI81) | inactive: -0.022
4 | TSC2 isoform 4 (UniProt P49815) | inactive: 0.047
5 | TRAPPC6A isoform 2 (UniProt O75865) | inactive: 0.008
6 | TRMT11 (UniProt Q7Z4G4) | inactive: -0.028
7 | TTC4 (UniProt O95801) | inactive: 0.026
8 | TRAM1 (UniProt Q15629) | inactive: 0.028
9 | TRIP10 isoform 2 (UniProt Q15642) | inactive: -0.004
10 | TRMT61A (UniProt Q96FX7) | inactive: 0.018
11 | TRAPPC2L (UniProt Q9UL33) | inactive: 0.021
12 | TTC12 isoform 2 (UniProt Q9H892) | inactive: 0.037
13 | TSPO (UniProt P30536) | inactive: 0
14 | TTC5 (UniProt Q8N0Z6) | inactive: 0.017
15 | TRIM32 (UniProt Q13049) | inactive: -0.012
16 | TRAPPC11 (UniProt Q7Z392) | inactive: 0.072
17 | TSC1 (UniProt Q92574) | inactive: 0.016

Row | Target | log2 fold change
18 | TRIM33 isoform 2 (UniProt Q9UPN9) | inactive: -0.014
19 | TRNT1 (UniProt Q96Q11) | inactive: 0.023
20 | TRMT61B (UniProt Q9BVS5) | inactive: -0.013
21 | TRIM5 (UniProt Q9C035) | inactive: 0.02
22 | TSPAN13 (UniProt O95857) | inactive: 0.088
23 | TRIM25 (UniProt Q14258) | inactive: 0.005
24 | TRPC4AP (UniProt Q8TEL6) | inactive: 0.003
25 | TSC22D2 (UniProt O75157) | inactive: 0.019
26 | TRIM11 (UniProt Q96F44) | inactive: 0.005
27 | TSNAX (UniProt Q99598) | inactive: 0.015
28 | TRAPPC13 isoform 4 (UniProt A5PLN9) | inactive: 0.05
29 | TRIP13 (UniProt Q15645) | inactive: 0.029
30 | TSR2 (UniProt Q969E8) | inactive: -0.02
31 | TRMT5 (UniProt Q32P41) | inactive: -0.005
32 | TTC9C (UniProt Q8N5M4) | inactive: -0.076
33 | TRAF6 (UniProt Q9Y4K3) | inactive: 0.046

Compound: CC1=C(C=C(C=C1)NC(=O)C2=CC(=CC=C2)N(C)C)NC(=O)C3=CC=C(C=C3)O
Experiment: as above
Outline: as §1

Row | Target | log2 fold change
34 | TRRAP (UniProt Q9Y4A5) | inactive: -0.011
35 | TSEN54 (UniProt Q7Z6J9) | inactive: 0.003
36 | TRAPPC2 isoform 3 (UniProt P0DI81) | inactive: 0.018
37 | TSC2 isoform 4 (UniProt P49815) | inactive: -0.021
38 | TRAPPC6A isoform 2 (UniProt O75865) | inactive: 0.004
39 | TRMT11 (UniProt Q7Z4G4) | inactive: -0.023
40 | TTC4 (UniProt O95801) | inactive: 0.029
41 | TRAM1 (UniProt Q15629) | inactive: -0.026
42 | TRIP10 isoform 2 (UniProt Q15642) | inactive: -0.111
43 | TRMT61A (UniProt Q96FX7) | inactive: 0.052
44 | TRAPPC2L (UniProt Q9UL33) | inactive: 0.005
45 | TTC12 isoform 2 (UniProt Q9H892) | inactive: -0.14
46 | TSPO (UniProt P30536) | inactive: 0.039
47 | TTC5 (UniProt Q8N0Z6) | inactive: 0.016
48 | TRIM32 (UniProt Q13049) | inactive: 0.277
49 | TRAPPC11 (UniProt Q7Z392) | inactive: 0.053
50 | TSC1 (UniProt Q92574) | inactive: -0.001

Row | Target | log2 fold change
51 | TRIM33 isoform 2 (UniProt Q9UPN9) | inactive: 0.019
52 | TRNT1 (UniProt Q96Q11) | inactive: 0.051
53 | TRMT61B (UniProt Q9BVS5) | inactive: -0.008
54 | TRIM5 (UniProt Q9C035) | inactive: 0.046
55 | TSPAN13 (UniProt O95857) | inactive: 0
56 | TRIM25 (UniProt Q14258) | inactive: 0.004
57 | TRPC4AP (UniProt Q8TEL6) | inactive: 0.046
58 | TSC22D2 (UniProt O75157) | inactive: 0.018
59 | TRIM11 (UniProt Q96F44) | inactive: -0.014
60 | TSNAX (UniProt Q99598) | inactive: 0.003
61 | TRAPPC13 isoform 4 (UniProt A5PLN9) | inactive: 0.069
62 | TRIP13 (UniProt Q15645) | inactive: 0.045
63 | TSR2 (UniProt Q969E8) | inactive: 0.001
64 | TRMT5 (UniProt Q32P41) | inactive: 0.034
65 | TTC9C (UniProt Q8N5M4) | inactive: 0.02
66 | TRAF6 (UniProt Q9Y4K3) | inactive: 0.013

Compound: CC1=CC=C(C=C1)SC2=C3C=C(SC3=CN=C2)C(=O)N
Experiment: as above
Outline: as §1

Row | Target | log2 fold change
67 | TRRAP (UniProt Q9Y4A5) | inactive: 0.027
68 | TSEN54 (UniProt Q7Z6J9) | inactive: -0.096
69 | TRAPPC2 isoform 3 (UniProt P0DI81) | inactive: 0.02
70 | TSC2 isoform 4 (UniProt P49815) | inactive: -0.008
71 | TRAPPC6A isoform 2 (UniProt O75865) | inactive: -0.062
72 | TRMT11 (UniProt Q7Z4G4) | inactive: 0.03
73 | TTC4 (UniProt O95801) | inactive: 0
74 | TRAM1 (UniProt Q15629) | inactive: 0.018
75 | TRIP10 isoform 2 (UniProt Q15642) | inactive: 0.045
76 | TRMT61A (UniProt Q96FX7) | inactive: 0.018
77 | TRAPPC2L (UniProt Q9UL33) | inactive: -0.007
78 | TTC12 isoform 2 (UniProt Q9H892) | inactive: -0.003
79 | TSPO (UniProt P30536) | inactive: 0.002
80 | TTC5 (UniProt Q8N0Z6) | inactive: -0.001
81 | TRIM32 (UniProt Q13049) | inactive: 0.047
82 | TRAPPC11 (UniProt Q7Z392) | inactive: 0.021
83 | TSC1 (UniProt Q92574) | inactive: 0.049

Row | Target | log2 fold change
84 | TRIM33 isoform 2 (UniProt Q9UPN9) | inactive: 0.005
85 | TRNT1 (UniProt Q96Q11) | inactive: 0.008
86 | TRMT61B (UniProt Q9BVS5) | inactive: -0.015
87 | TRIM5 (UniProt Q9C035) | inactive: -0.202
88 | TSPAN13 (UniProt O95857) | inactive: -0.043
89 | TRIM25 (UniProt Q14258) | inactive: 0.006
90 | TRPC4AP (UniProt Q8TEL6) | inactive: 0.083
91 | TSC22D2 (UniProt O75157) | inactive: -0.05
92 | TRIM11 (UniProt Q96F44) | inactive: 0.036
93 | TSNAX (UniProt Q99598) | inactive: -0.011
94 | TRAPPC13 isoform 4 (UniProt A5PLN9) | inactive: 0.036
95 | TRIP13 (UniProt Q15645) | inactive: 0.001
96 | TSR2 (UniProt Q969E8) | inactive: -0.009
97 | TRMT5 (UniProt Q32P41) | inactive: 0.022
98 | TTC9C (UniProt Q8N5M4) | inactive: 0.03
99 | TRAF6 (UniProt Q9Y4K3) | inactive: -0.012
